For at least one entry, the source does not settle the construct or the ends of the probe. No signal at the amounts used counts as a negative.
Molecular target: AtMyb77 (MYB77) (Arabidopsis thaliana) (UniProt Q9SN12)
Assay: EMSA
Conditions: ethylene-responsive element specificity control; same buffer; purified recombinant protein; protein details: His tag (pET28, E. coli BL21(DE3), Ni-NTA); label: 32P end label

The chains behind the UniProt entries cited, without tags or fusion partners. A line that says so, or that is headed by a name, gives the form on record, which may keep a tag or linker.
UniProt Q9SN12, other isoform, or with tags, fused parts or gaps: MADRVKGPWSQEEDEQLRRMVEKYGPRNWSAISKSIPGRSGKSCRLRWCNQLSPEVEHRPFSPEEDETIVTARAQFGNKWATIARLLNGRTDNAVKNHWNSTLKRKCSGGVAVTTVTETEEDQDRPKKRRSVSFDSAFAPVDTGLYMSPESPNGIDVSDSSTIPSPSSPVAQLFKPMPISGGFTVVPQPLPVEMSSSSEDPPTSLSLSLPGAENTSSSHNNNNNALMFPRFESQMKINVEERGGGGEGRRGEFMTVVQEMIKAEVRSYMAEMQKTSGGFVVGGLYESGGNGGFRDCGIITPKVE

**Q.** Does “ATAAAGAGCCGCCACTAAAATAAGCTT (double strand) [GCC box]” bind?
**A.** Result: no binding
